The list does not hold the whole screen: it gathers some chemical classes. Other doses and runs of a compound may be missing. T/C: endpoint of the treated group in % of that of the vehicle group. For survival time, the PubChem record calls one and a half times the control and up active, and a quarter to a half above the control has no call in these data; cut-offs in other NCI protocols can differ. Some entries show no survivor count and are marked so; the dose need not have been tolerated. Schedules are NCI's codes, taken here to give the interval after Q, in days (D) or hours (H), and the number of doses after X. Some doses were run more than once; the values are given in rising order.
Tested on: BDF1 mice, P288 leukemia ip, survival T/C
Assay: NCI In Vivo Anticancer Drug Screen. Data for tumor model P288 Lymphocytic Leukemia (intraperitoneal) in B6D2F1 (BDF1) mice
Conditions: T/C endpoint: survival time, mean or median, schedule: Q01DX010 (ip), vehicle: saline, higher T/C = longer survival
Protocol: The antitumor activity of compounds was measured in mice bearing transplantable tumors. Survival or tumor size were measured and the results are expressed as the measurement made in the treated group (T) divided by the measurement made in the vehicle treated control group (C). The tumor model used in this assay is P288 Lymphocytic Leukemia (intraperitoneal) in B6D2F1 (BDF1) mice

CN(CCCl)CCCl
T/C (dose: 0.13 mg/kg/injection): 115 [survivor count not shown] and 121 % of control [survivor count not shown] | T/C (dose: 0.25 mg/kg/injection): 94 [survivor count not shown] and 121 % of control [survivor count not shown] | T/C (dose: 0.5 mg/kg/injection): 100 [survivor count not shown] and 121 % of control [survivor count not shown]
